# Experimental data reported in PubChem BioAssay AID445 (National Center for Advancing Translational Sciences (NCATS), 2006).
# The other results are listed elsewhere or left out. The main result of the screen is listed elsewhere. These columns were measured beside it and carry no call. Most of these compounds were active or inconclusive in the main read-out, so they are no random draw. Potencies come from curve fits of mixed quality, noted in brackets.
# Experiment: IkB Signaling
# Conditions: ABC-DLBCL IkBa-CBG/CBR dual luciferase ratio (green luciferase fused to IkBa over red control in OCI-Ly3 lymphoma cells), 4 h; measured here: control luc red channel unless noted
# In short: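 Luminescence ratio of IκBα-fused green versus native red beetle luciferase in OCI-Ly3 cells, 4 h post-doxycycline with compound; red signal alone, scaled from basal (0%) to zero light (-100%), flagged nonspecific or cytotoxic effects.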
row,SMILES,AC50
1,O=C(NCCc1ccc(F)cc1)C(=O)NCC(c1cccs1)S(=O)(=O)c1ccc(F)cc1 (configuration not stated),"25.1 µM [falling, single point]"
2,O=C(Cn1c(=O)c2c(ncn2C2CCCC2)n(Cc2ccccc2)c1=O)N1CCc2ccccc21,"5.01 µM [falling, partial curve]"
3,COC(=O)c1c(NC(=O)CCCOc2ccc(C(C)(C)C)cc2)sc2c1C(C(=O)OC)CC2 (configuration not stated),"12.6 µM [falling, partial curve]"
4,CCn1c(SCC#N)nc2c(c1=O)C1(CCCC1)Cc1ccccc1-2,"39.8 µM [falling, single point]"
5,CCCC(=O)N(CCc1ccccc1)Cc1nc2ccccc2c(=O)[nH]1,"25.1 µM [falling, partial curve]"
6,COc1ccc(N2CCN(C(=O)CCn3c(=O)[nH]c4cc(OC)c(OC)cc4c3=O)CC2)cc1,"10 µM [falling, partial curve]"
7,CCc1ccc(CNC(=O)C(C)n2ccc3cc(S(=O)(=O)N4CCCCCC4)ccc32)cc1 (configuration not stated),"2 µM [falling, partial curve]"
8,Cc1cccc(NC(=O)CCS(=O)(=O)c2cccc3nsnc23)c1C,"12.6 µM [falling, partial curve]"
9,COc1cccc(C(=O)NCCc2csc(-c3ccc(Cl)cc3)n2)c1,"31.6 µM [falling, partial curve]"
10,COc1ccccc1N1CCN(c2ncnc3onc(-c4ccc(F)cc4)c23)CC1,"2.51 µM [rising, partial curve]"
11,COc1ccc(C)cc1NC(=O)CSc1nnc(-c2ccccn2)n1Cc1ccco1,"398 nM [rising, full curve, poor fit] [measured here: IkB-luc green channel]"
12,O=C(NCc1cccc(F)c1)C1CCCN(C(=O)N2CCOc3ccccc32)C1 (configuration not stated),"12.6 µM [falling, partial curve]"
13,Cc1ccc(C)c(NC(=O)C2CCCN(c3nc4ccccc4s3)C2)c1 (configuration not stated),"15.8 µM [falling, partial curve]"
14,CC1CN(C(=O)N2CCC(C(=O)NCc3cccs3)CC2)c2cc(Cl)ccc2O1 (configuration not stated),"15.8 µM [falling, partial curve]"
15,O=C(c1ccc(Br)o1)N1CCN(c2ccc3nnc(-c4ccccc4)n3n2)CC1,"20 µM [falling, single point]"
16,COc1ccc(OC)c(CNC(=O)c2ccc(C)c(NC(=O)c3nsc4ccccc34)c2)c1,"0.2 µM [falling, full curve]"
17,CCCCNC(=O)C1CCN(S(=O)(=O)CCC)CC1,"0.00794 µM [falling, full curve]"

# 2 records picked at random from those above:
row,SMILES,AC50
7,CCc1ccc(CNC(=O)C(C)n2ccc3cc(S(=O)(=O)N4CCCCCC4)ccc32)cc1 (configuration not stated),"2 µM [falling, partial curve]"
8,Cc1cccc(NC(=O)CCS(=O)(=O)c2cccc3nsnc23)c1C,"12.6 µM [falling, partial curve]"
